Experimental data published in PubChem BioAssay AID2685 (National Center for Advancing Translational Sciences (NCATS), 2010).
The list shows a part of the results. The main result of the screen is listed elsewhere. These columns were measured beside it and carry no call. Most of these compounds were active or inconclusive in the main read-out, so they are no random draw. Words in brackets tell the shape of the fitted curve; partial curves, single points and poor fits give uncertain potencies.

Assay: qHTS Assay for Lipid Storage Modulators in Drosophila S3 Cells;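 for cell number change: cells counted by Cell Tracker Red CMTPX staining in the red channel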
Details: BODIPY lipid droplet fluorescence, 18-24 h; for cell number change: measured here: cell count max response, cells fed with added oleic acid
Procedure, shortened: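 Laser-scanning cytometry quantifies lipid droplet accumulation (500–530 nm total intensity; droplet/cell object ratio) in oleic acid-fed (400 uM added) Drosophila S3 cells treated with a concentration series. 20 uM Triacsin C defined 100% inhibition.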

[1] = measured here: lipid fluorescence (Fed channel) AC50, cells fed with added oleic acid
[2] = measured here: cell number channel AC50, cells fed with added oleic acid

SMILES	cell number change [%]	AC50 [1]	AC50 [2]
Cc1ccc2c(c1)N(C(=O)CCC(=O)NCc1cccc(Br)c1)CC(C)O2 (stereo not given)	-18.7	29.1 µM [falling, single point]	
O=C(O)c1ccc(CN2C(=O)CSC2=S)cc1	-5.82	3.26 µM [falling, partial curve, poor fit]	
Cn1c(SCC(=O)N2c3ccccc3CCc3ccccc32)nnc1-c1cc2ccccc2cc1O	-11.2	29.1 µM [falling, single point]	
CCCCN(C(=O)C(C)N1C(=O)c2ccccc2C1=O)c1c(N)n(CCCC)c(=O)[nH]c1=O (stereo not given)	24.9	25.9 µM [rising, single point]	
COc1ccccc1NS(=O)(=O)c1ccc(C)c(C(=O)NCc2cccnc2)c1	-0.777	7.31 µM [rising, partial curve, poor fit]	
O=S1(=O)CCOC[C@H](CC2CCCCC2)N1Cc1cccc(F)c1	-2.99		
Clc1ccc(N2CCOCC2)nn1	-4.05	0.517 µM [falling, single point]	
Cc1cc(-c2ccc(C(=O)O)s2)cnc1N	35.7	0.00517 µM [rising, full curve]	0.206 µM [rising, full curve]
COc1ccc(-n2c3c(cc(C(=O)N4CCCCC4)c2=O)C(=O)CC(C)(C)C3)cc1	-85.9	5.8 µM [falling, full curve]	3.26 µM [falling, full curve]
CC(C)Oc1c(Br)cc(Br)cc1/C=N/NC(N)=S	-21.9	20.6 µM [falling, single point]	
CN(C)S(=O)(=O)N(CC(=O)N(Cc1ccccc1)Cc1ccccc1)c1ccccc1	42.9	1.3 µM [falling, full curve, poor fit]	29.1 µM [rising, single point]
COc1cccc(OC)c1C(=O)NC(=O)Nc1c(F)cc(F)cc1F	4.26	0.082 µM [falling, full curve, poor fit]	
Cn1cc(S(=O)(=O)N2CCOCC2)cc1C(=O)NCCc1ccccc1	-15		
O=C(c1cncc(Br)c1)N1CCN(c2ccc([N+](=O)[O-])cc2)CC1	-34.9	7.31 µM [rising, partial curve]	0.731 µM [rising, full curve]
Cc1cccnc1NCC(O)COc1ccccc1 (stereo not given)	-105	23.1 µM [falling, partial curve]	29.1 µM [falling, single point]
CC1(C)NC(C)(C)c2nonc2/C1=N\O	1.41	0.058 µM [falling, full curve, poor fit]	
CCOc1ccc(N(C(=O)c2snc(C(N)=O)c2N)C(CC)C(=O)NC2CCCC2)cc1 (stereo not given)	27		
COc1ccc2oc(C(=O)Nc3nccs3)c(C)c2c1	-20.2		
COc1ccc2cnnc(SCC(=O)Nc3ccccc3)c2c1OC	13.1		
COc1ccc(S(=O)(=O)n2cnc3cc(C)c(C)cc32)cc1	-11.8	0.366 µM [rising, full curve]	

Three compounds out of the list, arranged by length of the SMILES, high to low.
SMILES	cell number change [%]	AC50 [1]	AC50 [2]
CN(C)S(=O)(=O)N(CC(=O)N(Cc1ccccc1)Cc1ccccc1)c1ccccc1	42.9	1.3 µM [falling, full curve, poor fit]	29.1 µM [rising, single point]
COc1ccc(S(=O)(=O)n2cnc3cc(C)c(C)cc32)cc1	-11.8	0.366 µM [rising, full curve]	
CC(C)Oc1c(Br)cc(Br)cc1/C=N/NC(N)=S	-21.9	20.6 µM [falling, single point]	

Further records

SMILES	cell number change [%]	AC50 [1]	AC50 [2]
COc1ccc(NC(=O)C2C3CCC4C(CCC32)C4(Cl)Cl)cc1 (stereo not given)	-11.4	0.103 µM [falling, full curve, poor fit]	
COC(=O)C(O)(NC(=O)OCc1ccccc1)C(F)(F)F (stereo not given)	-206	23.1 µM [falling, single point]	
COc1ccc(C2CC(c3cccs3)=NN2C(=O)c2ccc(Br)o2)cc1 (stereo not given)	-49.3	29.1 µM [falling, single point]	29.1 µM [falling, single point]
CCOc1ccccc1-c1nc(C(N)=O)c2[nH]c(=O)n(-c3cccc(C)c3)c2n1	13.1		0.00461 µM [falling, full curve, poor fit]
Cc1ccc(/C=C/C2=NN(Cc3ccccc3)C(=O)CC2)cc1	36.3	4.61 µM [rising, single point]	0.0651 µM [rising, full curve]
CN1CCN(NC(=O)c2ccc(Cl)cc2Cl)CC1	-16.7	9.2 µM [falling, partial curve]	3.66 µM [rising, partial curve]
Cc1nn(C)c(C)c1CN(C)C(=O)c1cnn2c1NC(c1ccccc1)CC2C(F)(F)F (stereo not given)	0.146		
O=C(NNc1ncccc1Cl)c1c(Cl)cccc1Cl	-29.8	16.4 µM [falling, single point]	
CCOC(=O)c1ccccc1NC(=O)CSc1nnc(COc2ccccc2C)n1C		4.61 µM [rising, partial curve]	3.66 µM [rising, single point]
Cc1cccc(-n2c(CNC(=O)Cc3ccccc3)n[nH]c2=S)c1	6.04		0.651 µM [falling, single point]
O=C(N/N=C/c1ccncc1)c1cc2ccccc2o1	-13.7	0.00461 µM [rising, full curve, poor fit]	
CC(C(=O)Nc1ccccc1C(=O)N1CCOCC1)N(c1ccc(Cl)cc1)S(C)(=O)=O (stereo not given)		2.91 µM [falling, single point]	
Cc1ccc(/C=C(\NC(=O)c2ccccc2)C(=O)NC(Cc2ccccc2)C(=O)O)cc1 (stereo not given)	-32.8	4.11 µM [falling, full curve, poor fit]	3.66 µM [falling, full curve, poor fit]
Cc1ccc(NC(=O)[C@@H]2CCCN2S(=O)(=O)c2ccccc2C(F)(F)F)cc1S(=O)(=O)N1CCOCC1	-2.52		0.082 µM [falling, partial curve, poor fit]
N#C/C(N=Nc1ccccc1O)=N\Nc1ccccc1O	-86.7		29.1 µM [falling, single point]
COc1ccc(Cl)cc1C(=O)NCc1ccc2c(c1)OCO2	2.49		
COc1cccc(CNC(=O)c2cc3c(C)nc4ccccc4c3o2)c1	-22	29.1 µM [falling, single point]	
C/C(=N\Nc1cc(C)nc(NCc2ccccc2)n1)c1cccc([N+](=O)[O-])c1	59.2	29.1 µM [rising, partial curve, poor fit]	
N#Cc1c(NC(=O)c2cnn3cccnc23)sc2c1CCCC2	39.3	2.06 µM [rising, partial curve]	32.6 µM [rising, single point]
COc1cc(C(=O)Nc2nc(-c3cccs3)cs2)cc(OC)c1OC	-34.5		10.3 µM [falling, partial curve]

Limited to AC50 [1] and cell number change [%] (two entries from above):

| SMILES | AC50 [1] | cell number change [%] |
| --- | --- | --- |
| CC(C(=O)Nc1ccccc1C(=O)N1CCOCC1)N(c1ccc(Cl)cc1)S(C)(=O)=O (stereo not given) | 2.91 µM [falling, single point] |  |
| Cc1ccc(/C=C(\NC(=O)c2ccccc2)C(=O)NC(Cc2ccccc2)C(=O)O)cc1 (stereo not given) | 4.11 µM [falling, full curve, poor fit] | -32.8 |

Additional entries follow.

SMILES	cell number change [%]	AC50 [1]	AC50 [2]
CCOc1ccc(C(=O)Nc2ccc(S(=O)(=O)N3C[C@@H]4C[C@@H](C3)c3cccc(=O)n3C4)cc2)cc1	-42.4	20.6 µM [falling, single point]	4.61 µM [falling, single point]
O=C(Nc1nncs1)c1cccc(S(=O)(=O)N2CCc3ccccc32)c1	3.7		
CN1C(=O)C2ON(c3ccccc3)C(c3cccs3)C2C1=O (stereo not given)	-13.3	3.26 µM [falling, partial curve]	
Cc1nc2cc(S(=O)(=O)C(F)(F)F)ccc2s1	21.7		1.03 µM [rising, full curve, poor fit]
Cc1ccc(CNC(=O)c2cc(COc3c(F)cccc3F)on2)s1	24	1.46 µM [rising, full curve, poor fit]	
Nn1c(SCC(=O)NC(=O)Nc2ccc3c(c2)OCCO3)nnc1C1CC1	41.3	29.1 µM [rising, single point]	
CC1(C)CC(=O)c2cnc3c(C#N)cnn3c2C1	5.88	6.51 µM [rising, single point]	
CCc1nc(SCC(=O)NCCc2ccccc2)c2c(=O)n(C)c(=O)n(C)c2n1	-8.51	0.731 µM [rising, single point]	
Cc1cc(C(=O)O)ccc1-c1ccc(/C=C2\SC(=O)N(CC(=O)Nc3ccc4c(c3)OCO4)C2=O)o1	83.9	29.1 µM [falling, single point]	25.9 µM [rising, partial curve, poor fit]
C=CCNc1nc(N)c([N+](=O)[O-])c(NCc2ccccc2)n1	15.8	13 µM [rising, single point]	
CN1/C(=C\C=N\NC(=O)c2ccc(O)cc2)C(C)(C)c2ccccc21		2.59 µM [falling, partial curve]	
CCOc1ccc(C(=O)N(CC)CC(=O)Nc2ccc3c(c2)OCCO3)cc1OCC	8.96	5.8 µM [rising, full curve]	0.146 µM [falling, full curve, poor fit]
COc1ccc(/C=C/C(=O)N(C)Cc2cccs2)cc1S(=O)(=O)N1CCOCC1	23.6		0.206 µM [rising, single point]
C=C(C)C1CC=C(CN2CC(C)OC(C)C2)CC1 (stereo not given)	-14.5	0.00517 µM [rising, full curve, poor fit]	0.82 µM [rising, single point]
Cn1c(N)c(C(=O)COC(=O)c2ccco2)c(=O)n(C)c1=O	-4.95		
c1ccc2c(c1)CCCN2Cc1nnnn1C1CCCC1	14.4		
CNC(=O)C(Sc1ccccc1)c1ccccc1 (stereo not given)	4.36	0.731 µM [falling, full curve]	
COc1ccc(Br)cc1/C=N/NC(=O)c1cccc(S(=O)(=O)N2CCOCC2)c1	-11.9	0.92 µM [falling, full curve, poor fit]	
Cc1nc2c(-c3ccc(F)cc3)cnn2c(N)c1-c1ccccc1	-22.8	23.1 µM [falling, single point]	
